# Key:
# Protein sequences, listed by entry. Tags and fused reporters are not part of them. Residues count along the entry.
# UniProt Q8IEX1, 1-627: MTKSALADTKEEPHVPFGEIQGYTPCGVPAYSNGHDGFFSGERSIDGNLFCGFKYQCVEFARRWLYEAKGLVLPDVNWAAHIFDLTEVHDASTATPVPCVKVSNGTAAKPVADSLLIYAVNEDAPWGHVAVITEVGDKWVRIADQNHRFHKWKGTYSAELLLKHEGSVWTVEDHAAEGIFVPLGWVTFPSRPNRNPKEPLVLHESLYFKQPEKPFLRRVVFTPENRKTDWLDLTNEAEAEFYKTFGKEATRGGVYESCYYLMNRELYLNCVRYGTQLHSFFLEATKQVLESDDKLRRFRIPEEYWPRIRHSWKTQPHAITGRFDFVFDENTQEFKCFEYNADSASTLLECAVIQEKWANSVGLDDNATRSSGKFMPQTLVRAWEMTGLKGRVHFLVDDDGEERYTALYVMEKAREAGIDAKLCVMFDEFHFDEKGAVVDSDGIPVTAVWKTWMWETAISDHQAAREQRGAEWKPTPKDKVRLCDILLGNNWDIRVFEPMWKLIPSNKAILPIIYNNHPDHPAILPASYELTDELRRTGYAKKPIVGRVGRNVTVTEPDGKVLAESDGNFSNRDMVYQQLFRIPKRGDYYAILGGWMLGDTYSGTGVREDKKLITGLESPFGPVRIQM
# UniProt A4I2Z3, 1-652: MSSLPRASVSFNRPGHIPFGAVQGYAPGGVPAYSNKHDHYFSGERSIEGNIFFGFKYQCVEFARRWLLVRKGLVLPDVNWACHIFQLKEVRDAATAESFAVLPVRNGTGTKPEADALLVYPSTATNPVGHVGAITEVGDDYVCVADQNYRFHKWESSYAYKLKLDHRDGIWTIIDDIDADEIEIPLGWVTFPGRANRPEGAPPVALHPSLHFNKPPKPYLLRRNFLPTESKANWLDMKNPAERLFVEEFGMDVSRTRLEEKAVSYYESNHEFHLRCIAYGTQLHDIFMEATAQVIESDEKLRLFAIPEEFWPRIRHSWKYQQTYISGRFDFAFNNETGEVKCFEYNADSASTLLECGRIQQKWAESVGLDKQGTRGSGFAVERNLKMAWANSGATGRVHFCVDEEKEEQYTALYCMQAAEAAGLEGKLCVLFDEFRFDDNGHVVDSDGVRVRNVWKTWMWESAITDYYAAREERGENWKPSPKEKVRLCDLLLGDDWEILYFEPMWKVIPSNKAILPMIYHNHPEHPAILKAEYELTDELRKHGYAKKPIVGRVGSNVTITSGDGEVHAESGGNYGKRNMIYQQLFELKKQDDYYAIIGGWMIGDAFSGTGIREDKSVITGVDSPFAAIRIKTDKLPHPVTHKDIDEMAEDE
# [1] = target: TbTryS (Trypanosoma brucei trypanothione synthetase) (Trypanosoma brucei brucei, UniProt Q8IEX1); assay: biochemical; settings: read-out: reduction of TbTryS activity
# TbTryS = settings: subsaturating 25 μM SP; ref [18]; cited from earlier work
# [2] = target: LiTryS (Leishmania infantum trypanothione synthetase) (Leishmania infantum, UniProt A4I2Z3); assay: biochemical; settings: read-out: reduction of LiTryS activity
smiles,measurement,setting,value
"CN1CCN(CCCN2c3ccccc3Sc3ccc(Cl)cc32)CC1 [prochlorperazine, reference compound]",inhibition at 300 µM,[1],58%
same,IC50,TbTryS,19 µM
same,inhibition at 300 µM,[2],0%

# Reference: publication PMC4829233, “Identification of Novel Chemical Scaffolds Inhibiting Trypanothione Synthetase from Pathogenic Trypanosomatids” (PLoS Neglected Tropical Diseases, 2016)
